Assay results: paper doi:10.1101/2024.05.24.595653

Target: T1, fluorescent protein-tagged KIPK (KINESIN-LIKE CALMODULIN-BINDING PROTEIN … PROTEIN KINASE) (Arabidopsis thaliana) (UniProt Q9LFA2)
T1 sequence: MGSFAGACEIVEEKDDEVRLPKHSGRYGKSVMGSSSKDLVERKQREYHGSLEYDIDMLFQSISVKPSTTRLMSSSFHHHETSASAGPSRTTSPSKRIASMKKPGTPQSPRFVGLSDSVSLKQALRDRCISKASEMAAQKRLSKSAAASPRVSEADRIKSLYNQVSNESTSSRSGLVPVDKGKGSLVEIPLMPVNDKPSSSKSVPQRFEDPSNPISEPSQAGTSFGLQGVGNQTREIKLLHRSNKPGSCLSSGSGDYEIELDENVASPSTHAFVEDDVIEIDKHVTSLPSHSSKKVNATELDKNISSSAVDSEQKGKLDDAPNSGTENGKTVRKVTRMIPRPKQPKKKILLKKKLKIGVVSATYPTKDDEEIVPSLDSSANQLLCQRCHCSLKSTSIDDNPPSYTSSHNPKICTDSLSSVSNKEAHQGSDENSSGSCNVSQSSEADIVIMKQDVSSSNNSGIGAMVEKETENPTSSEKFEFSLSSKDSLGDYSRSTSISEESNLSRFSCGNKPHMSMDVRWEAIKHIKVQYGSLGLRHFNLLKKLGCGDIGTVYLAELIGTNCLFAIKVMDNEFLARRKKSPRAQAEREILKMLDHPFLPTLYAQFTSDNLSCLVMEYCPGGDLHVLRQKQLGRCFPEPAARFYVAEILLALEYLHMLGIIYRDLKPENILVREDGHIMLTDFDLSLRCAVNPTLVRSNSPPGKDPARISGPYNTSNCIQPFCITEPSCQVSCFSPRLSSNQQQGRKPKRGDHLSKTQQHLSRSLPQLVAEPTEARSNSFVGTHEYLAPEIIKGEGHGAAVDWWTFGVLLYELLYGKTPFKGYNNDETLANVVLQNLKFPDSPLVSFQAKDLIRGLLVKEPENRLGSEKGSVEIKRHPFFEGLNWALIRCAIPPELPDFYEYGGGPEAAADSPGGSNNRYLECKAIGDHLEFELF
Test: affinity purification with mass spectrometry

binding: binds
B1: BRXL2 (BREVIS RADIX LIKE2) (protein, UniProt Q8GYL9 1-374)
chain: MLTCIACTKQLNTNNGGSKKQEEDEEEEDRVIETPRSKQIKSLTSQIKDMAVKASGAYKSCKPCSGSSNQNKNRSYADSDVASNSGRFRYAYKRAGSGSSTPKILGKEMESRLKGFLSGEGTPESMSGRTESTVFMEEEDELKEWVAQVEPGVLITFVSLPEGGNDMKRIRFSREMFDKWQAQKWWAENFDKVMELYNVQQFNQQSVPLPTPPRSEDGSSRIQSTKNGPATPPLNKECSRGKGYASSGSLAHQPTTQTQSRHHDSSGLATTPKLSSISGTKTETSSVDESARSSFSREEEEADHSGEELSVSNASDIETEWVEQDEAGVYITIRALPDGTRELRRVRFSREKFGETNARLWWEQNRARIQQQYL

These are yes or no findings as the source states them, for the method shown. In cells and extracts the contact can be indirect. These calls come from enrichment with a bait or labelling near it, and not all partners need be listed. Where a sequence is shown, tags or fusion partners need not be part of it.
